Earlier results, collected in patent US9107836B2, “Formulation” (HOFFMANN-LA ROCHE INC., priority 2010, dated 2015).
At least one compound was matched to its structure with a doubt left.

How the values were obtained:
CETP [1] = target: T1, CETP (Homo sapiens, UniProt P11597); conditions: in humans; de Grooth et al. 2002
T1 sequence (P11597 18-493): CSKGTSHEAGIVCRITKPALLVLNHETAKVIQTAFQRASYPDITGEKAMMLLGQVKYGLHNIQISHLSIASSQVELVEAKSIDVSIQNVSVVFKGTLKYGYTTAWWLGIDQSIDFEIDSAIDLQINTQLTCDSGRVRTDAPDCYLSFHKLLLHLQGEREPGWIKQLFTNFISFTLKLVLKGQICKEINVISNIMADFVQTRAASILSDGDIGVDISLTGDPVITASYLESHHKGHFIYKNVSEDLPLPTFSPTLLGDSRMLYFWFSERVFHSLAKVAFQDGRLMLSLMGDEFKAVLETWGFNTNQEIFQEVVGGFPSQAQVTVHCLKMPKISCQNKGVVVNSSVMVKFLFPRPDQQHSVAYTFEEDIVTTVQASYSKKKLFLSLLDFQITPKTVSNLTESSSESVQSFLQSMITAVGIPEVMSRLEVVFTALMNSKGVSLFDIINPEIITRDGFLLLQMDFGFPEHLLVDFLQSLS

CETP [2] = target: T2, CETP (Oryctolagus cuniculus, UniProt P22687); conditions: in rabbits; Shinkai 2000, Kobayashi 2002, Okamoto 2000
T2 construct: and rabbits (Shinkai et al., J. Med. Chem., 43, 3566-3572 (2000))
T2 sequence (P22687 2-497): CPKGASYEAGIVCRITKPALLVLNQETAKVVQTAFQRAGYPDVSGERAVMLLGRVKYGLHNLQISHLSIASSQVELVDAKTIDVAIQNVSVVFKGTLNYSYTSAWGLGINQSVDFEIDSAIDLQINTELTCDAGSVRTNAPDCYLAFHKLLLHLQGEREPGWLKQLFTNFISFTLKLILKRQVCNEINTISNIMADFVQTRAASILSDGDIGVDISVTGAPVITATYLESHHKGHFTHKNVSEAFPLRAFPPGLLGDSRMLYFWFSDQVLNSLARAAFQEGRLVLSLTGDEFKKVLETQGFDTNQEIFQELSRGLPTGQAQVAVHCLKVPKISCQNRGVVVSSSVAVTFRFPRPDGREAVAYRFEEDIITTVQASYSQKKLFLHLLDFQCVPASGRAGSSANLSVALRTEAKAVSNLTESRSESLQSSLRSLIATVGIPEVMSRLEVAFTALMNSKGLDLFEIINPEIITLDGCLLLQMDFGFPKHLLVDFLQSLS

Structure (SMILES): CCC(CC)CC1(C(=O)Nc2ccccc2SC(=O)C(C)C)CCCCC1 [S-[2-([[1-(2-ethylbutyl)-cyclohexyl]-carbonyl]amino)phenyl]2-methylpropanethioate]
- inhibition of CETP activity (CETP [1]): inhibitor of CETP activity
- inhibition of CETP activity (CETP [2]): inhibitor of CETP activity
